pEC50: −log10 of the molar value. The structures given here were assigned with low confidence; some may be wrong.
Target: F508del in NIH 3T3 cells (Homo sapiens, UniProt P13569, DEL508-508)
Experiment: 3T3 assay: membrane potential optical assay for F508del correction
Settings: F508del NIH 3T3 cells
Source text: 1. Membrane Potential Optical Methods for Assaying F508del Modulation Properties of Compounds
The assay utilizes fluorescent voltage sensing dyes to measure changes in membrane potential using a fluorescent plate reader (e.g., FLIPR III, Molecular Devices, Inc.) as a readout for increase in functional F508del in NIH 3T3 cells. The driving force for the response is the creation of a chloride ion gradient in conjunction with channel activation by a single liquid addition step after the cells have previously been treated with compounds and subsequently loaded with a voltage sensing dye.
2. Identification of Corrector Compounds
To identify correctors of F508del, a single-addition HTS assay format was developed. This HTS assay utilizes fluorescent voltage sensing dyes to measure changes in membrane potential on the FLIPR III as a measurement for increase in gating (conductance) of F508del in F508del NIH 3T3 cells. The F508del NIH 3T3 cell cultures were incubated with the corrector compounds at a range of concentrations for 18-24 hours at 37° C., and subsequently loaded with a redistribution dye. The driving force for the response is a Cl^− ion gradient in conjunction with channel activation with forskolin in a single liquid addition step using a fluorescent plate reader such as FLIPR III. […]

By UniProt entry, the sequences of proteins in these tests, tags left out. Chains listed by the source or under a name are the forms on record and can include a tag or linker.
UniProt P13569, with tags, fused parts or gaps DEL508-508: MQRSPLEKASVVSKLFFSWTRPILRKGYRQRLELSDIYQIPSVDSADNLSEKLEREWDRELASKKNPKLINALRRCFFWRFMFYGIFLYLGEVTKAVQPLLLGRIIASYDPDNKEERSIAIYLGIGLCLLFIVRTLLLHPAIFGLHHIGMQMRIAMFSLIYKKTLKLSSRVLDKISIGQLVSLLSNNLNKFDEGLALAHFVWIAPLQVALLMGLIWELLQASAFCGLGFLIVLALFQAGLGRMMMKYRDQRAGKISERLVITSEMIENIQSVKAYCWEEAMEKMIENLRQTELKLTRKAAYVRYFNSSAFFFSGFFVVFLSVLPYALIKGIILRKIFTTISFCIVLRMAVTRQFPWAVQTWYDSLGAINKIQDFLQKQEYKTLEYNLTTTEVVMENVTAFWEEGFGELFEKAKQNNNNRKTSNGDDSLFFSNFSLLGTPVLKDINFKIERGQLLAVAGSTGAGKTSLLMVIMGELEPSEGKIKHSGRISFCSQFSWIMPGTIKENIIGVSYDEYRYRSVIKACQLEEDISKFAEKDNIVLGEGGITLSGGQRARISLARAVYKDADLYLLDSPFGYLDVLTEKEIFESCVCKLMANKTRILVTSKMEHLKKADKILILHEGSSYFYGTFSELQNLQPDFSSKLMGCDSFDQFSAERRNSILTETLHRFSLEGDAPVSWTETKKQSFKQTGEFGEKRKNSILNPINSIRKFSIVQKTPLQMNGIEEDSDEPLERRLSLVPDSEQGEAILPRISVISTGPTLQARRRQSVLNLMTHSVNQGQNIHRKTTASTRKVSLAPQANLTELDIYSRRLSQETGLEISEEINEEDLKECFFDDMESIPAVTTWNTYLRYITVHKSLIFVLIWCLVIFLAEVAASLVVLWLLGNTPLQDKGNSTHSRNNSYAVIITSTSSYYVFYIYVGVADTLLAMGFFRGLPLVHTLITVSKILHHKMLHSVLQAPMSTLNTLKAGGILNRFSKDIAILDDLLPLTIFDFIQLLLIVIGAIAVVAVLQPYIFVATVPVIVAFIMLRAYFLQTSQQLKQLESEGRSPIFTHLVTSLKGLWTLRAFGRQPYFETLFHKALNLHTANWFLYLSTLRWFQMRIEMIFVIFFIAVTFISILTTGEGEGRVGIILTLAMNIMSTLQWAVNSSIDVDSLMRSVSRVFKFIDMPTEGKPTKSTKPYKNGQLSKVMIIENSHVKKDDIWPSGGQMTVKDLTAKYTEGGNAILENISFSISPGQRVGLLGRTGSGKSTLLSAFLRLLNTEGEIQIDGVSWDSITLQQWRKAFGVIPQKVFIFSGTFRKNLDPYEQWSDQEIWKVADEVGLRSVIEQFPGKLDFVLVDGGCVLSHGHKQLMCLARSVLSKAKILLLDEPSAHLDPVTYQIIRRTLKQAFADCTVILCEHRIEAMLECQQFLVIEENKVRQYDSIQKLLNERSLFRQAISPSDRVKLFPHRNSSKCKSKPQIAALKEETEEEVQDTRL

`CCC(C)(C)C1CCc2nc(NS(=O)(=O)c3ccccc3)sc2C1` (centres unmarked) was tested, and the “3T3 Max Activity (%)” value (efficacy compared to lumacaftor in combination with acutely added 300 nM Ivacaftor) was “++ (++ is 30-60%)” and the pEC50 (read-out: 3T3 EC50, incubated with compound 18-24 hours at 37° C., forskolin activation) was 5.52 to 6.00.

Reference: patent US20230373974A1, “MODULATORS OF CYSTIC FIBROSIS TRANSMEMBRANE CONDUCTANCE REGULATOR” (VERTEX PHARMACEUTICALS INCORPORATED, priority 2020, published 2023)
